Results from paper PMC13470446.
Substitutions are numbered along the chain they refer to. Results are given in words; binding and its absence hold for the method and conditions named. Binding seen in cells or lysates may run through a third protein. Some binding calls cover weakened binding; strength is not graded here. Sequences can lack the tags named with a protein. Each block holds one binder with its values, some of them ahead of it.

Molecular target: T1, Nse3-3xSTII (S. cerevisiae) (UniProt Q05541)
T1 sequence: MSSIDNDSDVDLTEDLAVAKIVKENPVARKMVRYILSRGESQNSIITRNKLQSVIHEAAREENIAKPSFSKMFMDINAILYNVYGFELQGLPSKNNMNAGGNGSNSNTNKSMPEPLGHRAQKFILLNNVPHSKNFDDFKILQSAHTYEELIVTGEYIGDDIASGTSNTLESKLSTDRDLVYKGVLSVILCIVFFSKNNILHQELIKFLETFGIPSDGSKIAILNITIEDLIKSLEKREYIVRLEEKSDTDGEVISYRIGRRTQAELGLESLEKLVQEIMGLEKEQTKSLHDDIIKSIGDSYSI
Test: co-IP; yeast whole cell extracts; Nse3-3xSTII captured on StrepTactin XT resin overnight at 4°C; washes with lysis buffer (140 mM NaCl), high salt buffer (360 mM NaCl) and TE; blots with anti-Strep and anti-Myc (9E10)

- binding: binds
B1: Smc5-13xMYC (protein, UniProt Q08204 1-1093)
chain: MTSLIDLGRYVERTHHGEDTEPRSKRVKIAKPDLSSFQPGSIIKIRLQDFVTYTLTEFNLSPSLNMIIGPNGSGKSTFVCAVCLGLAGKPEYIGRSKKVEDFIKNGQDVSKIEITLKNSPNVTDIEYIDARDETIKITRIITRSKRRSDYLINDYQVSESVVKTLVAQLNIQLDNLCQFLSQERVEEFARLKSVKLLVETIRSIDASLLDVLDELRELQGNEQSLQKDLDFKKAKIVHLRQESDKLRKSVESLRDFQNKKGEIELHSQLLPYVKVKDHKEKLNIYKEEYERAKANLRAILKDKKPFANTKKTLENQVEELTEKCSLKTDEFLKAKEKINEIFEKLNTIRDEVIKKKNQNEYYRGRTKKLQATIISTKEDFLRSQEILAQTHLPEKSVFEDIDIKRKEIINKEGEIRDLISEIDAKANAINHEMRSIQRQAESKTKSLTTTDKIGILNQDQDLKEVRDAVLMVREHPEMKDKILEPPIMTVSAINAQFAAYLAQCVDYNTSKALTVVDSDSYKLFANPILDKFKVNLRELSSADTTPPVPAETVRDLGFEGYLSDFITGDKRVMKMLCQTSKIHTIPVSRRELTPAQIKKLITPRPNGKILFKRIIHGNRLVDIKQSAYGSKQVFPTDVSIKQTNFYQGSIMSNEQKIRIENEIINLKNEYNDRKSTLDALSNQKSGYRHELSELASKNDDINREAHQLNEIRKKYTMRKSTIETLREKLDQLKREARKDVSQKIKDIDDQIQQLLLKQRHLLSKMASSMKSLKNCQKELISTQILQFEAQNMDVSMNDVIGFFNEREADLKSQYEDKKKFVKEMRDTPEFQSWMREIRSYDQDTKEKLNKVAEKYEEEGNFNLSFVQDVLDKLESEIAMVNHDESAVTILDQVTAELRELEHTVPQQSKDLETIKAKLKEDHAVLEPKLDDIVSKISARFARLFNNVGSAGAVRLEKPKDYAEWKIEIMVKFRDNAPLKKLDSHTQSGGERAVSTVLYMIALQEFTSAPFRVVDEINQGMDSRNERIVHKAMVENACAENTSQYFLITPKLLTGLHYHEKMRIHCVMAGSWIPNPSEDPKMIHFGETSNYSFD

- binding: binds
B2: Smc5-2KE-13xMYC (protein, UniProt Q08204 1-1093)
chain: B1 chain with K624E, K631E
